Results from US20120225065A1.

By UniProt entry, the sequences of proteins in these tests, tags left out. Where a name states a change or a piece, a line headed by the entry shows the natural chain unless it says otherwise.
UniProt Q9P0W0: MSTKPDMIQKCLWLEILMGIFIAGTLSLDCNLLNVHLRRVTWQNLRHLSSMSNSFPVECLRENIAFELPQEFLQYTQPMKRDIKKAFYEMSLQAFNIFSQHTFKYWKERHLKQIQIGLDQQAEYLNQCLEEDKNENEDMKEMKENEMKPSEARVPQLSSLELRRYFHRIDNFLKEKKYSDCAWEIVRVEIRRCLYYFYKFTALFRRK

B1: Human anti-human IL-21 monoclonal antibody clone 366.328.10 (antibody, V domains shown)
VH: EVQLVESGGGLVKPGGSLRLSCAASGFIFSSYSMNWVRQAPGKGLEWVSSITSGSYYIHYADSVKGRFTISRDNAKNSLYLQMNSLRAEDTAVYYCVRERGWGYYGMDVWGQGTTVTVSS
VL: AIQLTQSPSSLSASVGDRVTITCRASQDIDSALAWYQQKPGKAPKILIHDASSLESGVPSRFSGSGSGTDFTLTISSLQPEDFATYYCQQFNSYPYTFGQGTKLEIK
B2: Human anti-human IL-21 monoclonal antibody clone 366.552.11 (antibody, V domains shown)
VH: QVQLQESGPGLVKPSETLSLTCTVSGGSISSDFWGWIRQPPGKGLEWIGYISSRGSTNYNPSLKRRVTISVDTSRNQFSLKLSSVTAADTAVYYCARSAGVTDFDFWGQGTLVTVSS
VL: DIQMTQSPSSVSASVGDRVTITCRASQGISSWLAWYQHKPGKAPKLLIYVASSLQSGVPSRFSGSGSGTDFTLTISSLQPEDFATYYCQQANSFPLTFGGGTKVEIK

Experiments:
[1] = target: Recombinant human IFN-λ (human) (UniProt Q9P0W0); assay: Western blot
[2] = target: Recombinant human IFN-λ (human) (UniProt Q9P0W0); assay: Western blot; remark: listed apart in the source

Binder | binding [1] | binding [2]
B1 | no binding (tested: 10 ng/ml or 100 ng/ml) | no binding
B2 | no binding (tested: 10 ng/ml or 100 ng/ml) | no binding

Like-named read-outs stand apart in the source and are kept apart here. No constants are given. Whether binding was seen depends on the method and setting.
